PubChem BioAssay AID686943 – Drosophila RNAi Screening Center | 2013

- Test: 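Fly genes whose loss alters ERK activation after insulin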 (primary screen)
- System: Drosophila S2R+ haemocyte-like cells expressing YFP-tagged ERK (Rolled)
- Knock-down reagent: long dsRNA against Drosophila genes
- Treatment: insulin stimulation versus unstimulated cells; dose and duration not given
- Read-out: 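Antibody staining for doubly phosphorylated ERK divided by ERK-YFP signal, as plate z-scores, in insulin-treated and untreated cells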
- Scale: replicate 1, z-score of dpERK with insulin: higher = more active ERK per ERK-YFP after insulin
The deposit covers about 23,000 reagents; below is a random part of those that have a named target and a result. 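Extra replicates exist only for a retested subset of genes; insulin dose and duration not given; both raised and lowered dpERK matter.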 The numbers tell different reagents against one gene apart. A plus sign joins genes that one reagent is predicted to hit. Further read-outs or replicates are left out here. No sequences are given here. Not stated in the record: the amount of reagent, the time to read-out.

CG16756 — replicate 1, z-score of dpERK with insulin = -1.72
mEFTu2 (mitochondrial translation elongation factor Tu 2) — replicate 1, z-score of dpERK with insulin = 0.96
CG8034 — replicate 1, z-score of dpERK with insulin = -0.64
GstD5 (Glutathione S transferase D5) — replicate 1, z-score of dpERK with insulin = 0.86
CG12926 #1 — replicate 1, z-score of dpERK with insulin = 0.45
CG12926 #2 — replicate 1, z-score of dpERK with insulin = -0.03
CG17819 — replicate 1, z-score of dpERK with insulin = -1.06
agt (O-6-alkylguanine-DNA alkyltransferase) — replicate 1, z-score of dpERK with insulin = 0.01
CG12360 (retired record) — replicate 1, z-score of dpERK with insulin = 0.32
CG16957 — replicate 1, z-score of dpERK with insulin = 0.27
asRNA:CR43469 + Balat — replicate 1, z-score of dpERK with insulin = -0.22
Snr1 (Snf5-related 1) — replicate 1, z-score of dpERK with insulin = 1.96

Not a retest: entries from further up.
CG16756 — replicate 1, z-score of dpERK with insulin = -1.72
mEFTu2 (mitochondrial translation elongation factor Tu 2) — replicate 1, z-score of dpERK with insulin = 0.96
